A: 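Coenzyme A biosynthesis protein CoaBC, Mycobacterium tuberculosis (UniProt P9WNZ1). Enzyme assay of CoaBC with a phosphate dye (Biomol Green) read at 650 nm. Concentration: 30 µM. Higher reads as stronger inhibition, judged from the few compounds that gave an IC50. Most strong results did not repeat in a second test. Size under these conditions: about 67,000 compounds, about 40 of them at 50% or above in at least one test.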
B: 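Lysine-tRNA ligase, Plasmodium falciparum 3D7 (UniProt Q8IDJ8). Enzyme assay of the cytosolic lysyl-tRNA synthetase in 384-well plates, read by luminescence. Tested at 30 µM. Direction is inferred from only a few compounds that gave an IC50; most scored high, so higher reads as stronger inhibition. Of about 69,000 compounds tested this way, about 49 (0.071%) reached 50% or more in at least one test.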
C: 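Enzyme assay of histidyl-tRNA synthetase; the read-out is not stated. Target: Histidine-tRNA ligase, Leishmania infantum (UniProt A4I591). Tested at 30 µM. The record gives no direction; compounds that gave an IC50 in retests scored well above the rest, so higher reads as stronger inhibition. The assay is labelled LdHisRS but filed under L. infantum. Size under these conditions: about 69,000 compounds, about 410 of them at 50% or above in at least one test.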

Amino acid sequences for entries named in this document (tags omitted). Residues count along the entry.
UniProt P9WNZ1, whole entry: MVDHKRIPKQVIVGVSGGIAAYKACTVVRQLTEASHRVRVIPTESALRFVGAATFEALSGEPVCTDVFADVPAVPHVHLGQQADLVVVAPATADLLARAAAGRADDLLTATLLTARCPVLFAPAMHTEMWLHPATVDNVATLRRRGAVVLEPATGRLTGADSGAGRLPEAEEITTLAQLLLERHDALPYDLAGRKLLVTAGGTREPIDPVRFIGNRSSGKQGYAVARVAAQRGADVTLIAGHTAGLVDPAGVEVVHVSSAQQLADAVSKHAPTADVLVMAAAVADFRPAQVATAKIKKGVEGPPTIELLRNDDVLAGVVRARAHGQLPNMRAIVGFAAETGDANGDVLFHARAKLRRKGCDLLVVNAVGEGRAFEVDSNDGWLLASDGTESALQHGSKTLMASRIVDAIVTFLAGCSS
UniProt Q8IDJ8, 1-583: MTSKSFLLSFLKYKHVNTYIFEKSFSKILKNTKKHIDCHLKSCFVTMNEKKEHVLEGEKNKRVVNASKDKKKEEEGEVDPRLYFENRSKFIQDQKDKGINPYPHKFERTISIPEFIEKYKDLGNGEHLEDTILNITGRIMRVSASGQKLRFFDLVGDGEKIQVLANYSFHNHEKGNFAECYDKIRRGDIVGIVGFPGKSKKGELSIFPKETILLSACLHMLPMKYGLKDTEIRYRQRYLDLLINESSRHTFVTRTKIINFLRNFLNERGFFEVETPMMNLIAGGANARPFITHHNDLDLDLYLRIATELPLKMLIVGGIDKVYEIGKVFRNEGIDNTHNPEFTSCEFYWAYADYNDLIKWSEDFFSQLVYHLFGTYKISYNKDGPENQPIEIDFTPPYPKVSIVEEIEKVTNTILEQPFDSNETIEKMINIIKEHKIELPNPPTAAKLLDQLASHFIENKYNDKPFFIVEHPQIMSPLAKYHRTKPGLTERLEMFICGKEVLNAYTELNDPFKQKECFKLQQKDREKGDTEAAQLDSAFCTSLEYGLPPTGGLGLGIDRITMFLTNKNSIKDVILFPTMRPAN
UniProt A4I591, 1-473: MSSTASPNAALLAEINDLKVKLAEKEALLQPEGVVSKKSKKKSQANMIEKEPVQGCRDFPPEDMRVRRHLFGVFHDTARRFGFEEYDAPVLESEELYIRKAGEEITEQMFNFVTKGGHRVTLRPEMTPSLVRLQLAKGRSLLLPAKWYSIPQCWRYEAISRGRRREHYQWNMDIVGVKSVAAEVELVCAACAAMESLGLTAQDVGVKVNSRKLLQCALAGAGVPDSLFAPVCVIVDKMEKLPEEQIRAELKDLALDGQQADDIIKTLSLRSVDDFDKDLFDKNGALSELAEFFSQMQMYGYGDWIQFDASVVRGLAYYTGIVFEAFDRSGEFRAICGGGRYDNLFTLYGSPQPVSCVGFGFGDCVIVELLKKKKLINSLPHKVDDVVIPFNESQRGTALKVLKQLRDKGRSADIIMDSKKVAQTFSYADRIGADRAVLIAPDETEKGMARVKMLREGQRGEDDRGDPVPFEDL

Results are given as percent effect.
The record does not define 0% and 100%; most values in the screen are far below 50% and negative numbers occur (in some assays of this library far below -100).
Compounds were drawn at random from those tested, without regard to their results.
Two or more numbers in one place are separate tests of the same structure; such repeats can differ widely.
A dash means the value is not listed here; it may have been measured.

structure,A,B,C
CC(C)N(C(=O)Cn1nnnc1CCc1ccccc1)C(C)C,-5.533,-3.322,-1.429
CC(C)(NCc1ccc(C#N)cc1)c1ccc2c(c1)OCO2,-0.638,2.186,8.333
CC(C)C(=O)N1CC[C@H]2N(C)CC[C@@]2(C(=O)Nc2cccnc2)CC1,4.703,3.389,8.108
CCc1ccccc1OC1CN(C(=O)c2cccs2)C1,-4.959,3.919,1.333
CCc1nnc2n1CCN(C(=O)c1ccc3nc(C)c(C)nc3c1)C2,-6.751,1.841,27.88
CS(=O)(=O)NC1CCN(Cc2ccc(OCc3ccccn3)cc2)CC1,-0.6046,6.619,9.677
CN1CCCCC12Cc1ccccc1CN(C(=O)c1ccccc1)C2 (centres unmarked),-2.632,4.995,30.34
Clc1ccc(N2CCC(C3CCN(Cc4cccnc4)CC3)C2)nc1 (centres unmarked),-,-2.485,9.167
CN(CCOc1ccccc1F)S(=O)(=O)CC1CCOCC1,9.163,2.479,24.66
COc1cccc(CN2CCC3(CCN(c4ncc(C)cn4)C3)C2=O)c1 (centres unmarked),-0.6342,-0.3627,21.05
OCCOc1cc(F)ccc1NCc1nc(-c2ccoc2)no1,-1.985,2.794,17.02
CN(C)CCN1C(=O)CCCC12CCCN(Cc1ccc[nH]1)C2 (centres unmarked),2.188,2.69,11.54
CNC(=O)COC1COC2(CCN(Cc3cccnc3)CC2)C1 (centres unmarked),0,3.139,13.21
CCCn1nccc1-c1cc(C2CCN(S(C)(=O)=O)CC2)ccn1,-0.3708,-0.7749,8.966
COc1cc(C)c(C)cc1S(=O)(=O)N(C)CC(=O)Nc1ccon1,-3.23,1.703,3.279
O=C(NC[C@H]1CCCC[C@H]1O)c1ccc2nc(-c3ccco3)[nH]c2c1,0.2427,3.848,63.37
CCN1CCC(CNC(=O)Nc2cccnc2OC)CC1,-3.62,12.81,14.88
O=c1[nH]cnc2c1CCN(S(=O)(=O)c1cccc(OC(F)(F)F)c1)C2,7.769,3.35,20.41
Cc1noc(C)c1-c1ccc(C2CCCN2C(=O)Cn2ccnc2)nc1 (centres unmarked),8.029,-3.264,9.474
O=C(c1ccc(Br)s1)N1CCN(Cc2ccc(OC(F)(F)F)cc2)CC1,1.919,-2.26,5.769
CNS(=O)(=O)c1cccc(C(C)NCc2ccc(C)c(C)c2)c1 (centres unmarked),-4.762,-2.74,-6.25
Cc1cc(C(=O)N2CCN(C(=O)Cc3ccccn3)CC2)c(C)s1,7.05,3.774,10.81
CCCc1n[nH]c(C2CN(C(=O)c3ccnc(C4CC4)n3)CCO2)n1 (centres unmarked),4.439,-0.2032,16.81
COc1ccc(C(=O)N2C[C@@H](O)[C@H](NCc3cnc(C)cn3)C2)cc1,0.9709,-1.243,15.29
Cc1nnc(CN2CCCC2c2ccsc2)o1 (centres unmarked),-0.4914,-1.548,8.73
Cc1nnsc1CN1CCCC1c1nc(-c2ccccc2)no1 (centres unmarked),0.4,0.5425,20.51
Cc1cn2cc(-c3nc4c([nH]3)CCCNC4=O)nc2s1,7.431,2.579,15.04
CC1CN(Cc2cccc(CNC3CCCC3)c2)CCO1 (centres unmarked),0.7299,3.493,8.889
Cc1nn(-c2ccccc2)nc1C(=O)NCC(c1ccco1)N(C)C (centres unmarked),8.102,2.947,6.452
CCC[C@]12CN3C[C@](C)(CN(C1)C3c1[nH]c(=O)[nH]c(=O)c1C)C2=O (some centres unmarked),0.9685,1.133,4.348
Cc1ncccc1-c1cc2cccnc2n1CCCNC(=O)C(C)(C)C,5.825,0.3714,7.143
Fc1ccc(C2CN(CCc3ccncc3)CCO2)cc1 (centres unmarked),-5.06,-2.654,3.297
Cc1noc(C)c1CN1CCOC(CNc2cccnn2)C1 (centres unmarked),10,-1.926,14.29
COCCN1CCn2c(CN(C)C(C)C)cnc2C1,3.03,4.681,9.589
CC(C)[C@@H]1CN(Cc2cnc3c(S(C)(=O)=O)cnn3c2)C[C@H]1N(C)C,14.6,4.435,17.65
Cc1cnc2c(C(=O)N3CCCC(OCc4ccccn4)C3)cnn2c1 (centres unmarked),20.19 and 11.64,6.441,15
CCCC(=O)N1CCCN(C(=O)c2oc(C)nc2C)CC1,1.141,6.11,1.266
CNc1cc(C)nc(-c2cc(NCCO)nc3[nH]ccc23)n1,-0.8264,0.9509,8.163
COC[C@@]12CCO[C@@H]1CCN(C(=O)Cc1ccccc1C)C2,1.85,3.341,9.677
CC(C)n1cnc2c1C(C(=O)N(C)C)N(Cc1ccccc1)CC2 (centres unmarked),10.1,6.195,17.14
Cc1ccc(C(C(=O)NCCN2CCCCCC2)N(C)C)cc1 (centres unmarked),-0.9828,5.235,15.05
CCn1cc(CN2CCC(N3CCC(O)CC3)CC2)cc1C#N,-0.2404,0.4038,6.25
CC(C)N1[C@H](Cn2cncn2)C[C@@H]2CN(c3ncccn3)CC[C@@H]21,-2.664,7.829,22
c1ccc(CN2CCC(Cc3noc(C4CC4)n3)CC2)cc1,4.377,0.3989,22.34
CC(=O)N(Cc1noc(C2CC2)n1)C1CCN(Cc2ccncc2)C1 (centres unmarked),0,0.04689,19.15
Cc1noc(-c2cnc(NC3CC3)nc2-c2ccco2)c1C,3.828,-1.637,12.95
O=C(NC1CCS(=O)(=O)c2ccccc21)c1sccc1C1CC1 (centres unmarked),1.683,-0.6889,6.25
COCCn1cc(C(=O)N2CCCC2c2ccccc2C)ccc1=O (centres unmarked),2.689,2.821,14.52
O=C(c1cccc(-n2cnnn2)c1)N1CCC2(CC1)OCCO2,11.79,3.109,18.09
CC(NC(=O)CNCCn1cccn1)c1ccc2c(c1)OCCO2 (centres unmarked),-0.9639,-2.701,8.219
CN(C)C(C(=O)NCCSc1ncn[nH]1)c1cccc(F)c1 (centres unmarked),2.051,-0.7231,8.8
O=C(NCCc1nncn1C1CC1)C1SCCc2sccc21 (centres unmarked),3.509,7.039,13.33
Cc1cnc2n(c1=O)C(CC(=O)NCc1cccs1)CS2 (centres unmarked),-0.6017,2.454,17.98
CC(c1ccc(F)cc1F)N1CCN(CCC(=O)NC(N)=O)CC1 (centres unmarked),-12.02,4.667,6.667
CN(C)Cc1cccc(-c2cccnc2C(=O)NCc2cn(C)cn2)c1,9.794 and 23.24,0.2584,5.594
CCN1CCN(C2CCN(Cc3noc(C)n3)CC2)C1=O,7.455,7.763,25.84
OC1(Cn2ccc3ncccc32)CCN(Cc2ccccn2)CC1,-5,-2.985,8.333
Cc1cccc(-c2nc(C)nn2CC(=O)NC(C)C)c1,-0.129,0.9902,-3.478
Cc1ccc(CN2CC[C@H](c3nnc(-c4ccco4)o3)C2)cc1,1.104,1.286,12.16
O=C(c1ccccc1)N1C[C@@H]2CCCO[C@@H]2[C@H](N2CCCC2)C1,-1.48,4.224,22.81
CCC(O)CN(Cc1ccccc1)S(=O)(=O)c1cnc(C)s1 (centres unmarked),2.805,-0.9757,17.58
CC1CCN(C(=O)c2occc2COc2cccc(C#N)c2)CC1,4.248,2.085,17.7
O=C1N(c2ccccc2)Cc2nc(=O)[nH]n21,3.365,5.469,9.709

Some entries from above, unchanged:

* CN1CCCCC12Cc1ccccc1CN(C(=O)c1ccccc1)C2 (centres unmarked) | A: -2.632%; B: 4.995%; C: 30.34%
* O=C1N(c2ccccc2)Cc2nc(=O)[nH]n21 | A: 3.365%; B: 5.469%; C: 9.709%
* COc1ccc(C(=O)N2C[C@@H](O)[C@H](NCc3cnc(C)cn3)C2)cc1 | A: 0.9709%; B: -1.243%; C: 15.29%
* CCCc1n[nH]c(C2CN(C(=O)c3ccnc(C4CC4)n3)CCO2)n1 (centres unmarked) | A: 4.439%; B: -0.2032%; C: 16.81%

Measurements from “University of Dundee, Small-Polar-MMV Screening Library” (2021), ChEMBL document CHEMBL3988442.